Measured values published in paper PMC10724393, “FOXA2 Suppression by TRIM36 Exerts Anti‐Tumor Role in Colorectal Cancer Via Inducing NRF2/GPX4‐Regulated Ferroptosis” (Advanced Science, 2023).
No constants are given. Whether binding was seen depends on the method and setting. In cells and extracts the contact can be indirect. These calls come from enrichment with a bait or labelling near it, and not all partners need be listed.

Sequences of proteins named here, by UniProt entry; tags and fusion partners are left off.
UniProt Q99496: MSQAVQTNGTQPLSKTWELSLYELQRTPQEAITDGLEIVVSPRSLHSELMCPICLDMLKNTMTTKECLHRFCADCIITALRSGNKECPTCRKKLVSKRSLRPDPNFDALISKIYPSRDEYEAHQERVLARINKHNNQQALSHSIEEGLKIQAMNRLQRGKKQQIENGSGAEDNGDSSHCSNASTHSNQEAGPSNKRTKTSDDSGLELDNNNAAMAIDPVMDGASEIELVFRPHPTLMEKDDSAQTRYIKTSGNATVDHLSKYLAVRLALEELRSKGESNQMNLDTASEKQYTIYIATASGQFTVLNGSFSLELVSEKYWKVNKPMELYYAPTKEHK
UniProt Q9UNE7: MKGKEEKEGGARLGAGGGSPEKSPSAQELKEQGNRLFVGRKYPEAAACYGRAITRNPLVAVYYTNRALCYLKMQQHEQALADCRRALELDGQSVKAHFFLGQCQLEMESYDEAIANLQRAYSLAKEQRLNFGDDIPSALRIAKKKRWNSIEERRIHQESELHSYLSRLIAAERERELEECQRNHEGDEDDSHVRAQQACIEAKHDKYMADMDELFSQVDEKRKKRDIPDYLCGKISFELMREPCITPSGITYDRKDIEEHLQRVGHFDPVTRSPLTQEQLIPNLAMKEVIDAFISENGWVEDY
UniProt Q14258: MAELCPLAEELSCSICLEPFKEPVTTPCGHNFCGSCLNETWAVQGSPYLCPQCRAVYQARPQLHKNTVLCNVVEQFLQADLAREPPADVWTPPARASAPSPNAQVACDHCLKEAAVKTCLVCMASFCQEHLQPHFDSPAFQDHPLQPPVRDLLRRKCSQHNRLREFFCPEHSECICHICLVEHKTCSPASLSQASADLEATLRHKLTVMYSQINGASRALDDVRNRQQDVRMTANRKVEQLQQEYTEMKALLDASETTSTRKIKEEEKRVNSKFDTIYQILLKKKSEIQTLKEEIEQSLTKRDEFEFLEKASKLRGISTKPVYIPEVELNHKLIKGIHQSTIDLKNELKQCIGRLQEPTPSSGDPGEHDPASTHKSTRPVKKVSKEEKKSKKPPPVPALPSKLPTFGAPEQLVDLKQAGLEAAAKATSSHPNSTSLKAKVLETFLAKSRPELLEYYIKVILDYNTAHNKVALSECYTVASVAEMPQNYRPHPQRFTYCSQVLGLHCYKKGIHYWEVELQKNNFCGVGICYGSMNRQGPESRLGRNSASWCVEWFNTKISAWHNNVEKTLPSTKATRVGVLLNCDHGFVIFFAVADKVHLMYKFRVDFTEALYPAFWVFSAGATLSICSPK

T1: forkhead box transcription factor A2 (FOXA2), stably transfected (human) (UniProt Q9Y261)
T1 sequence: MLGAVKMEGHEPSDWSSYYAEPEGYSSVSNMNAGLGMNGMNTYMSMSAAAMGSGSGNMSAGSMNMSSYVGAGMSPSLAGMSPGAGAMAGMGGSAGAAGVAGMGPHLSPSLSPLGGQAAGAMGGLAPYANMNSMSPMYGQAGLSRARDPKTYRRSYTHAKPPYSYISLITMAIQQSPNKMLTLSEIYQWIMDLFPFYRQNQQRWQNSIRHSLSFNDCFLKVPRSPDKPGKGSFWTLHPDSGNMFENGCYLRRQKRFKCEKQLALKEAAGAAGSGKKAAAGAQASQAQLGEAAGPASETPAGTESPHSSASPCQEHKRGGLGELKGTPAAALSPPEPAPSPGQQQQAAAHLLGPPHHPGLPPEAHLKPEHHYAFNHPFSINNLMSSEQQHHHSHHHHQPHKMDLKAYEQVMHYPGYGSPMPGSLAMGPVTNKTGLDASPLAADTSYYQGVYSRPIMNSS


molecular target: T1, forkhead box transcription factor A2 (FOXA2), stably transfected (human); assay: affinity purification with mass spectrometry; IP with anti-FOXA2 antibody vs isotype-control IgG from HCT-116 and HEK293T cells stably transfected with FOXA2; proteins found in both cell lines

| Molecule | binding |
| --- | --- |
| RNF2, endogenous (from UniProt Q99496 1-336) | binds |
| CHIP, endogenous (from UniProt Q9UNE7 1-303) | binds |
| TRIM25, endogenous (from UniProt Q14258 1-630) | binds |
| tripartite motif containing 36 (TRIM36), endogenous (protein, UniProt Q9NQ86 1-728) MSESGEMSEFGYIMELIAKGKVTIKNIERELICPACKELFTHPLILPCQHSICHKCVKELLLTLDDSFNDVGSDNSNQSSPRLRLPSPSMDKIDRINRPGWKRNSLTPRTTVFPCPGCEHDVDLGERGINGLFRNFTLETIVERYRQAARAATAIMCDLCKPPPQESTKSCMDCSASYCNECFKIHHPWGTIKAQHEYVGPTTNFRPKILMCPEHETERINMYCELCRRPVCHLCKLGGNHANHRVTTMSSAYKTLKEKLSKDIDYLIGKESQVKSQISELNLLMKETECNGERAKEEAITHFEKLFEVLEERKSSVLKAIDSSKKLRLDKFQTQMEEYQGLLENNGLVGYAQEVLKETDQSCFVQTAKQLHLRIQKATESLKSFRPAAQTSFEDYVVNTSKQTELLGELSFFSSGIDVPEINEEQSKVYNNALINWHHPEKDKADSYVLEYRKINRDDEMSWNEIEVCGTSKIIQDLENSSTYAFRVRAYKGSICSPCSRELILHTPPAPVFSFLFDEKCGYNNEHLLLNLKRDRVESRAGFNLLLAAERIQVGYYTSLDYIIGDTGITKGKHFWAFRVEPYSYLVKVGVASSDKLQEWLRSPRDAVSPRYEQDSGHDSGSEDACFDSSQPFTLVTIGMQKFFIPKSPTSSNEPENRVLPMPTSIGIFLDCDKGKVDFYDMDQMKCLYERQVDCSHTLYPAFALMGSGGIQLEEPITAKYLEYQEDM | binds |
| MID1, endogenous (protein, UniProt O15344 1-667) METLESELTCPICLELFEDPLLLPCAHSLCFNCAHRILVSHCATNESVESITAFQCPTCRHVITLSQRGLDGLKRNVTLQNIIDRFQKASVSGPNSPSETRRERAFDANTMTSAEKVLCQFCDQDPAQDAVKTCVTCEVSYCDECLKATHPNKKPFTGHRLIEPIPDSHIRGLMCLEHEDEKVNMYCVTDDQLICALCKLVGRHRDHQVAALSERYDKLKQNLESNLTNLIKRNTELETLLAKLIQTCQHVEVNASRQEAKLTEECDLLIEIIQQRRQIIGTKIKEGKVMRLRKLAQQIANCKQCIERSASLISQAEHSLKENDHARFLQTAKNITERVSMATASSQVLIPEINLNDTFDTFALDFSREKKLLECLDYLTAPNPPTIREELCTASYDTITVHWTSDDEFSVVSYELQYTIFTGQANVVSLCNSADSWMIVPNIKQNHYTVHGLQSGTKYIFMVKAINQAGSRSSEPGKLKTNSQPFKLDPKSAHRKLKVSHDNLTVERDESSSKKSHTPERFTSQGSYGVAGNVFIDSGRHYWEVVISGSTWYAIGLAYKSAPKHEWIGKNSASWALCRCNNNWVVRHNSKEIPIEPAPHLRRVGILLDYDNGSIAFYDALNSIHLYTFDVAFAQPVCPTFTVWNKCLTIITGLPIPDHLDCTEQLP | binds |
